Test results: US11090275B2, “Compositions comprising cannabidiol and second therapeutic agents for the treatment of cancer” (JAY PHARMA, INC., priority 2015, dated 2021)

Columns and labels:
Type in all cases: cell-based
CCRF-CEM cells = experiment: XTT cell viability, CCRF-CEM cells; settings: Homo sapiens, 5% serum supplemented medium, 24h, read-out: IC 50, cell viability
Description: (§1) human HL-60, myeloblastic leukemia and CCRF-CEM, acute lymphoblastic leukemia cell line were cultured in RPMI-1640 supplemented with 10% (v/v) heat-inactivated fetal calf serum, 2 mM L-glutamine, 100U/ml penicillin and 100 μg/ml streptomycin. MCF-7, breast cancer and A-172, glioblastoma cell lines were cultured in DMEM supplemented with 10% (v/v) heat-inactivated fetal calf serum, 2 mM L-glutamine, 100U/ml penicillin and 100 μg/ml streptomycin. Cultures were maintained at 37° C. in a humidified atmosphere with 5% CO2 and maintained in exponential phase by transfer to fresh medium every 2-3 days. Experiments were conducted in serum free medium and 5% or 10% FCS medium. The trypanblue dye exclusion method was used for cell counting performed using a hemocytometer under light microscope.

HL-60 cells = experiment: XTT cell viability, HL-60 cells; settings: Homo sapiens, 5% serum supplemented medium, 24h, read-out: IC 50, cell viability
Description: as §1

MCF-7 cells = experiment: XTT cell viability, MCF-7 cells; settings: Homo sapiens, MCF7; 5% serum containing medium, 24h; read-out: IC 50, cell viability
Description: as §1

| IC50 (CCRF-CEM cells) [µM] | IC50 (HL-60 cells) [µM] | IC50 (MCF-7 cells) [µM] | SMILES |
| --- | --- | --- | --- |
| 16 | 12 | 12 | CC/C(=C(\c1ccccc1)c1ccc(OCCN(C)C)cc1)c1ccccc1 [tamoxifen] |
| 15 | 14 |  | CCN(CC)CCOc1ccc(C(=C(Cl)c2ccccc2)c2ccccc2)cc1 [clomiphene] |
